From PMC5381226
Results are given in words; binding and its absence hold for the method and conditions named. Binding seen in cells or lysates may run through a third protein. Some entries that bind do so weakly or less than the wild type. One block for each molecule: values may come before it.

Protein sequences, listed by entry. Tags and fused reporters are not part of them. Residues count along the entry.
UniProt Q9Z0X1, residues 102-612: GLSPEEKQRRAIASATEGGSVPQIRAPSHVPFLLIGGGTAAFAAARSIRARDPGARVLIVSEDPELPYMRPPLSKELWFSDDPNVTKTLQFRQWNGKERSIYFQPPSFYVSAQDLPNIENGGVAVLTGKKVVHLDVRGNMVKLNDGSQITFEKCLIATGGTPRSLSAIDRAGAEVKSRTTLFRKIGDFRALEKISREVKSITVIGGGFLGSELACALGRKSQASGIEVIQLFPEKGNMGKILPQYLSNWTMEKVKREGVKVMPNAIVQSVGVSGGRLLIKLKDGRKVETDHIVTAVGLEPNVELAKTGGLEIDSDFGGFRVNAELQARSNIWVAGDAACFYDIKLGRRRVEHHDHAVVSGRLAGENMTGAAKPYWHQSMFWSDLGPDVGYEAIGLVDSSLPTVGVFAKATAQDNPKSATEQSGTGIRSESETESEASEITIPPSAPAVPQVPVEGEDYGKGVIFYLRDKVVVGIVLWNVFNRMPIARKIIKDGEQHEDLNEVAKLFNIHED
UniProt Q80V62: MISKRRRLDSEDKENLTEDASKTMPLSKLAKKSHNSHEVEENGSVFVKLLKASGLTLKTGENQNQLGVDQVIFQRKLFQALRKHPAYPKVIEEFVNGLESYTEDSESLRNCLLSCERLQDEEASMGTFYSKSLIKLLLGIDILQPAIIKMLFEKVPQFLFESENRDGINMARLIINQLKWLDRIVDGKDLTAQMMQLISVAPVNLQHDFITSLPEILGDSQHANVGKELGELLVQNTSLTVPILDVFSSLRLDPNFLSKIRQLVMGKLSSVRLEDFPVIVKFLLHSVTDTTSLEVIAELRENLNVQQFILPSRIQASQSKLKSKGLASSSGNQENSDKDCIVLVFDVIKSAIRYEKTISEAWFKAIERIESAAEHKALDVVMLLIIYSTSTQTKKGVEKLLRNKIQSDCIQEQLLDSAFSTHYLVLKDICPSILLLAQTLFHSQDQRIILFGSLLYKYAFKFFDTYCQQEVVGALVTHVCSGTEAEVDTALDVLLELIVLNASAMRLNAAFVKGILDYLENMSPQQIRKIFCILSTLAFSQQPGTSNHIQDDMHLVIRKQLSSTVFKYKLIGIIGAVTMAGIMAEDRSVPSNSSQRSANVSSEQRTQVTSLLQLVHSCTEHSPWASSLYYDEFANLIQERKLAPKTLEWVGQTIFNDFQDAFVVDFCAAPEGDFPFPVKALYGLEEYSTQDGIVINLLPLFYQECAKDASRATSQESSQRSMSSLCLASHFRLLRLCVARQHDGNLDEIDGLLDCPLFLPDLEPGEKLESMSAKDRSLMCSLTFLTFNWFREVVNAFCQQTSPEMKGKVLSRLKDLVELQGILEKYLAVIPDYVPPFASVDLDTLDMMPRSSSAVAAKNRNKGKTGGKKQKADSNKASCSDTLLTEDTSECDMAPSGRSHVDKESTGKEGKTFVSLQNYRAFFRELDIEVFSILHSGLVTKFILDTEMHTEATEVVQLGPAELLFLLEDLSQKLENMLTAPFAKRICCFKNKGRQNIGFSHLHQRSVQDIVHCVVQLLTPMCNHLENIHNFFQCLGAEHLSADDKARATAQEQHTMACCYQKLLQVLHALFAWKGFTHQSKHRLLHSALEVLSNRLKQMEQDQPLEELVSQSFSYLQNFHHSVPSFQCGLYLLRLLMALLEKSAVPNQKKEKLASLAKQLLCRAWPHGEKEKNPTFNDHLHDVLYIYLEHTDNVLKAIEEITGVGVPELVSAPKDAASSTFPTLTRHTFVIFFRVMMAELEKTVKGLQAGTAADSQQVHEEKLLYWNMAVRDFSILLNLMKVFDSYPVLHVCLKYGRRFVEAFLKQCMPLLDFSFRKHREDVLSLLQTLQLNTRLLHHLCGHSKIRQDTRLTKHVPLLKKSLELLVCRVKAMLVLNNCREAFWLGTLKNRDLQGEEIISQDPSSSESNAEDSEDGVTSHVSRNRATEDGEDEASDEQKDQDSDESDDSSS

How the values were obtained:
[1] = target: Aifm (Apoptosis-Inducing Factor, Mitochondrion-Associated) (mouse (endogenous in mouse tissues)) (UniProt Q9Z0X1); assay: co-IP; immunoprecipitation with antibodies to Atad3, Tufm and Aifm from lysates of Fancd2^KI/KI spleen MNCs (also Fanca-/- Fancd2^KI/KI and Fancd2-/- spleen MNCs), immunoblot
[2] = target: T1, Atad3 (mouse (endogenous in mouse tissues and cells)) (UniProt Q925I1); assay: as above
T1 sequence: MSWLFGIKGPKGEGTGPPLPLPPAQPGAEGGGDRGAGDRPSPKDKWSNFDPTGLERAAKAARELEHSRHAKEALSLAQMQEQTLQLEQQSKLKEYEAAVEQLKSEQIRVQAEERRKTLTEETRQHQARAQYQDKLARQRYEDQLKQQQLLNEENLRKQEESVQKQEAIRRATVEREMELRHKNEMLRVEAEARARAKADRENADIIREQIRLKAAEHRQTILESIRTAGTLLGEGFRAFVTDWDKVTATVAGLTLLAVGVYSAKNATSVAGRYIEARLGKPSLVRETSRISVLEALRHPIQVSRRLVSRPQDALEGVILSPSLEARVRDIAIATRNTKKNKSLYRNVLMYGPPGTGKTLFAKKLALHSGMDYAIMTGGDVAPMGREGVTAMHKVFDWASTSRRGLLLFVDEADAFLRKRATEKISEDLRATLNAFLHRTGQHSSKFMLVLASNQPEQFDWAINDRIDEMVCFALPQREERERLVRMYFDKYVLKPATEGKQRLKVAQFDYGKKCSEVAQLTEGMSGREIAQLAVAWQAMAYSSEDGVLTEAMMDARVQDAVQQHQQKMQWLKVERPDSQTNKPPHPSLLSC

[3] = target: 3XFLAG/HA-tagged Fancd2 (mouse) (UniProt Q80V62); assay: co-IP; anti-FLAG immunoprecipitation of tagged Fancd2 and immunoblot of partners; spleen MNCs (Fig. 2D); tissue of Supplemental Fig. 3 not told

binding [1]: binds | binding [2]: binds
Molecule: 3XFLAG/HA-tagged Fancd2 (from UniProt Q80V62 1-1450)

binding [2]: binds
B1: Tfam (Transcription Factor A, Mitochondrial) (protein, UniProt P40630 43-243)
chain: SSMGSYPKKPMSSYLRFSTEQLPKFKAKHPDAKLSELVRKIAALWRELPEAEKKVYEADFKAEWKAYKEAVSKYKEQLTPSQLMGMEKEARQRRLKKKALVKRRELILLGKPKRPRSAYNIYVSESFQEAKDDSAQGKLKLVNEAWKNLSPEEKQAYIQLAKDDRIRYDNEMKSWEEQMAEVGRSDLIRRSVKRSGDISEH

binding [3]: binds
B2: Fanci (protein, UniProt Q8K368 1-1330)
chain: MDLKILSLATDKTTDKLQEFLQTLKDDDLASLLQNQAVKGRAVGTLLRAVLKGSPCSEEDGALRRYKIYSCCIQLVESGDLQQDVASEIIGLLMLEVHHFPGPLLVDLASDFVGAVREDRLVNGKSLELLPIILTALATKKEVLACGKGDLNGEEYKRQLIDTLCSVRWPQRYMIQLTSVFKDVCLTPEEMNLVVAKVLTMFSKLNLQEIPPLVYQLLVLSSKGSRRSVLDGIIAFFRELDKQHREEQSSDELSELITAPADELYHVEGTVILHIVFAIKLDCELGRELLKHLKAGQQGDPSKCLCPFSIALLLSLTRIQRFEEQVFDLLKTSVVKSFKDLQLLQGSKFLQTLVPQRTCVSTMILEVVRNSVHSWDHVTQGLIEFGFILMDSYGPKKILDGKAVEIGTSLSKMTNQHACKLGANILLETFKIHEMIRQEILEQVLNRVVTRTSSPINHFLDLFSDIIMYAPLILQNCSKVTETFDYLTFLPLQTVQGLLKAVQPLLKISMSMRDSLILVLRKAMFASQLDARKSAVAGFLLLLKNFKVLGSLPSSQCTQSIGVTQVRVDVHSRYSAVANETFCLEIIDSLKRSLGQQADIRLMLYDGFYDVLRRNSQLASSIMQTLFSQLKQFYEPEPDLLPPLKLGACVLTQGSQIFLQEPLDHLLSCIQHCLAWYKSRVVPLQQGDEGEEEEEELYSELDDMLESITVRMIKSELEDFELDKSADFSQNTNVGIKNNICACLIMGVCEVLMEYNFSISNFSKSKFEEILSLFTCYKKFSDILSEKAGKGKAKMTSKVSDSLLSLKFVSDLLTALFRDSIQSHEESLSVLRSSGEFMHYAVNVTLQKIQQLIRTGHVSGPDGQNPDKIFQNLCDITRVLLWRYTSIPTSVEESGKKEKGKSISLLCLEGLQKTFSVVLQFYQPKVQQFLQALDVMGTEEEEAGVTVTQRASFQIRQFQRSLLNLLSSEEDDFNSKEALLLIAVLSTLSRLLEPTSPQFVQMLSWTSKICKEYSQEDASFCKSLMNLFFSLHVLYKSPVTLLRDLSQDIHGQLGDIDQDVEIEKTDHFAVVNLRTAAPTVCLLVLSQAEKVLEEVDWLIAKIKGSANQETLSDKVTPEDASSQAVPPTLLIEKAIVMQLGTLVTFFHELVQTALPSGSCVDTLLKGLSKIYSTLTAFVKYYLQVCQSSRGIPNTVEKLVKLSGSHLTPVCYSFISYVQNKSSDAPKCSEKEKAAVSTTMAKVLRETKPIPNLVFAIEQYEKFLIQLSKKSKVNLMQHMKLSTSRDFKIKGSVLDMVLREDEEDENEEGTASAHTQQDREPAKKRRKKCLS
